# Test results as given in PubChem BioAssay AID504847 (National Center for Advancing Translational Sciences (NCATS), 2011).
# Protein sequences, listed by entry. Tags and fused reporters are not part of them. Lines headed by an entry give the natural chain unless they say otherwise; changes in a name come on top.
# UniProt P11473: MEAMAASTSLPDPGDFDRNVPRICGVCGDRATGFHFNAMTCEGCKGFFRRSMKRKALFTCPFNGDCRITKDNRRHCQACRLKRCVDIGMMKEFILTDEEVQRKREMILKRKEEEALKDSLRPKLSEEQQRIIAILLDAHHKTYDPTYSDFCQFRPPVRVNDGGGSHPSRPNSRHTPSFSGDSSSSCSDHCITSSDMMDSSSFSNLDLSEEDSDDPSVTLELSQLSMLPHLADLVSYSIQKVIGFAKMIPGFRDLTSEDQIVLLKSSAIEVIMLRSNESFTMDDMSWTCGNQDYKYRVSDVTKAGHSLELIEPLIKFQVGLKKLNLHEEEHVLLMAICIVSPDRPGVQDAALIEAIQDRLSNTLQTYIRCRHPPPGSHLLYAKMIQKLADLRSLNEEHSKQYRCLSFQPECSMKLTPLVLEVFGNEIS
# Out of some 400,000 compounds screened, about 3,700 (0.93%) were called active. The inconclusive results got no clear call from the source; some entries with a clear call stand among them for comparison. Calls come from the whole dose curve; as a rule, active = well fitted inhibition curve with a large enough effect; inconclusive = small, poorly fitted or top-dose-only effect, or another doubt; inactive = no such curve, though single readings can be large or run the other way. Potencies of inconclusive entries are doubtful fits and often do not repeat. Some structures have more than one record in an assay (separate samples or runs), and their calls can disagree.
# Molecular target: Vitamin D3 receptor (Homo sapiens) (UniProt P11473)
# Experiment: Inhibitors of the vitamin D receptor (VDR): qHTS
# Conditions: VDR-SRC2-3 peptide fluorescence polarization, 2 h; max response, negative = inhibition: stronger effect = lower value
# In short: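 The screen uses fluorescence polarization to detect compounds that interfere with recruitment of the SRC2-3 coactivator peptide to VDR; plates are read after 2 h at room temperature.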
# % is set by controls: 0 for no effect and ±100 for the full control effect; potency is the fitted concentration of half-maximal effect.
Compound,Potency,"max response, negative = inhibition"
CC(=O)C1CCC2C3CCC4=CC(=O)CC[C@@]4(C)C3CC[C@]12C (stereo not given in full),active: 44.7 µM,
O=C1NC(=O)N(c2ccc3c(c2)OCO3)C(=O)/C1=C/c1cccs1,active: 79.4 µM,
N#Cc1c(/N=C/C2C(=O)NC(=S)NC2=O)sc2c1CCCC2,"inconclusive: 50.1 µM [inhibitor, partial curve]",
CN(C)c1ccc(NC(=O)Oc2ccccc2)cc1,"inconclusive: 2.82 µM [inhibitor, partial curve, poor fit]",
NC(N)=NN=C(/C=C/c1ccc([N+](=O)[O-])o1)/C=C/c1ccc([N+](=O)[O-])o1,"inconclusive: 39.8 µM [inhibitor, single point]",
COc1ccc(OC(=O)N2C/C(=C/c3ccccc3)C(=O)/C(=C\c3ccccc3)C2)cc1,"inconclusive: 7.94 µM [inhibitor, partial curve, poor fit]",
O=C(Nc1ccc(Oc2ccc(Cl)cc2)c(Cl)c1)c1cc(I)cc(I)c1O,"inconclusive: 50.1 µM [inhibitor, partial curve, poor fit]",
CN(C)CC/C=C1\c2ccccc2Sc2ccc(Cl)cc21,"inconclusive: 89.1 µM [inhibitor, partial curve, poor fit]",
COc1ccc(-c2nc(NC(=O)Cn3c(=O)oc4ccccc43)sc2C)cc1,,inactive: 52%
O=[N+]([O-])c1cc(I)c(O)c(I)c1,"inconclusive: 89.1 µM [inhibitor, single point]",
Cc1ccc(/C=C2\C(=O)NC(=S)N(c3ccc(F)cc3)C2=O)s1,active: 35.5 µM,
O=C1/C(=C\c2ccc(Cl)c(Cl)c2)N2CCC1CC2,"inconclusive: 89.1 µM [inhibitor, single point]",
O=C1NC(=O)N(c2ccc(Cl)cc2)C(=O)/C1=C/c1coc2ccc(O)cc2c1=O,"inconclusive: 56.2 µM [inhibitor, partial curve, poor fit]",
CN1CC[C@@]2(C)c3cc(O)ccc3N(C)C12 (stereo not given in full),"inconclusive: 50.1 µM [inhibitor, partial curve]",
COc1cc(CC2C(=O)N(C)C(=O)N(C)C2=O)ccc1OCc1ccccc1,"inconclusive: 79.4 µM [inhibitor, partial curve]",
CCCN1CCc2cccc3c2[C@H]1Cc1ccc(O)c(O)c1-3,active: 7.94 µM,
O=C1NC(=O)C(=Cc2ccc3ccccc3c2)C(=O)N1,"inconclusive: 44.7 µM [inhibitor, partial curve, poor fit]",
CCN(CC)C(=O)c1ccc(NC(=O)COC(=O)c2ccc(Cl)s2)cc1,"inconclusive: 89.1 µM [inhibitor, single point]",
Nc1nc2ccc(Cl)cc2c2nc(-c3ccco3)nn12,"inconclusive: 50.1 µM [inhibitor, partial curve]",
Cc1cccc(N2C(=O)NC(=O)C3(Cc4cc(C)ccc4N(C)C3)C2=O)c1 (stereo not given),,inactive: -8.24%
CN(C)c1ccc(/C=C2/C(=O)NC(=O)N(Cc3ccco3)C2=O)cc1,"inconclusive: 14.1 µM [inhibitor, partial curve, poor fit]",
COc1ccc(/C=C2\C(=O)NC(=O)N(Cc3ccccc3)C2=O)c(OC)c1OC,"inconclusive: 50.1 µM [inhibitor, partial curve]",

Compound,Potency,"max response, negative = inhibition"
COc1cccc(N2C(=O)NC(=O)/C(=C/c3ccc([N+](=O)[O-])s3)C2=O)c1,"inconclusive: 50.1 µM [inhibitor, partial curve, poor fit]",
c1nc[n]([Sn]([CH]2CCCCC2)([CH]2CCCCC2)[CH]2CCCCC2)n1,active: 50.1 µM,
CC1CCN(CC(=O)c2ccccc2Cl)CC1,"inconclusive: 44.7 µM [inhibitor, partial curve, poor fit]",
COc1ccccc1N1CCN(Cc2ccc(Br)s2)CC1,,inactive: -1.92%
O=C(O)CCn1cc(C=C2C(=O)NC(=S)NC2=O)c(-c2cc3ccccc3oc2=O)n1,"inconclusive: 50.1 µM [inhibitor, partial curve, poor fit]",
CCN(CC)c1ccc(/C=C/[N+](=O)[O-])cc1,active: 17.8 µM,
CC1CC(OP(O)(=S)c2ccc(N(C)C)cc2NC(=O)c2cccs2)CC(C)(C)C1 (stereo not given),active: 44.7 µM,
C[C@@H](N)Cc1cnc[nH]1,active: 79.4 µM,
NC(=O)CSc1nc2cc(S(=O)(=O)N3CCOCC3)ccc2o1,"inconclusive: 89.1 µM [inhibitor, single point]",
O=[N+]([O-])c1cccnc1N1CCCNCC1,,inactive: 12.3%
O=C1NC(=S)N(c2ccccc2)C(=O)/C1=C/c1ccco1,"inconclusive: 31.6 µM [inhibitor, partial curve, poor fit]",
O=C(O)CCn1cc(C=C2C(=O)NC(=S)NC2=O)c(-c2ccccc2)n1,active: 10 µM,
CC(C)Oc1ccc(Cc2c(O)[nH]c(=O)[nH]c2=O)cc1,"inconclusive: 89.1 µM [inhibitor, single point]",
Cc1c(N=Nc2c(O)n(Cc3ccccc3)c(=O)[nH]c2=O)c(=O)n(-c2ccccc2)n1C,"inconclusive: 89.1 µM [inhibitor, single point]",
O=C(c1ccccc1)C(CN1CCCC1)c1ccccc1 (stereo not given),"inconclusive: 25.1 µM [inhibitor, full curve, poor fit]",
C=CCn1c(O)c(C(C)=Nc2ccc(N(C)C)cc2)c(=O)[nH]c1=O,"inconclusive: 56.2 µM [inhibitor, partial curve, poor fit]",
O=C1NC(=O)C(=Cc2cccc(OCCOc3ccccc3)c2)C(=O)N1,"inconclusive: 56.2 µM [inhibitor, partial curve, poor fit]",
CC(C)=CCC[C@]1(C)[C@@H](CC=C(C)C)C[C@@]2(CC=C(C)C)C(=O)[C@]1(C(=O)C(C)C)C(=O)C(CC=C(C)C)=C2O,"inconclusive: 28.2 µM [inhibitor, partial curve, poor fit]",
O=[N+]([O-])NC1=NCN(Cc2ccco2)CN1Cc1ccco1,"inconclusive: 89.1 µM [inhibitor, partial curve, poor fit]",
CC1CN(CC(=O)c2ccccc2Cl)CC(C)O1 (stereo not given),"inconclusive: 22.4 µM [inhibitor, full curve]",
C#CCN1C(C)=C(C(=O)CCO)[C@@H](c2cccc(-n3oo3)c2)C(C(=O)OC)=C1C,"inconclusive: 70.8 µM [inhibitor, single point]",
Cc1nc(N)sc1CCN,"inconclusive: 35.5 µM [inhibitor, single point]",inactive: 6.62%

Compound,Potency,"max response, negative = inhibition"
O=C(Oc1ccc(Cl)cc1)N1CCOCC1,active: 79.4 µM,
COc1ccc(CC2NC[C@H](O)[C@H]2OC(C)=O)cc1 (stereo not given in full),,inactive: 12.3%
Cc1ccc(S(=O)(=O)Nc2ccc3c(c2)CC(=O)N([C@H](C)CO)C[C@@H](C)[C@H](CN(C)S(=O)(=O)c2ccccc2)O3)cc1,"inconclusive: 56.2 µM [inhibitor, partial curve, poor fit]",
O=C1NC(=O)C(C/C=C/c2ccccc2)C(=O)N1,"inconclusive: 50.1 µM [inhibitor, partial curve, poor fit]",
CN1C(=O)/C(=C\c2ccc(N3CCCCCC3)cc2)C(=O)NC1=S,"inconclusive: 89.1 µM [inhibitor, single point]",
COc1ccccc1N1C(=O)NC(=O)C2(Cc3cc(C)ccc3N(C)C2)C1=O (stereo not given),"inconclusive: 31.6 µM [inhibitor, partial curve, poor fit]",
CC(=O)NC1N=C(C)N(c2ccccc2)C1=O (stereo not given),"inconclusive: 79.4 µM [inhibitor, partial curve]",
CNC(=S)S,"inconclusive: 50.1 µM [inhibitor, partial curve]",
CN(C)c1ccc(C=C2C(=O)NC(=S)NC2=O)cc1[N+](=O)[O-],active: 22.4 µM,
CN1C(=O)C(=Cc2ccccc2Oc2ccc(Cl)cc2)C(=O)N(C)C1=O,active: 28.2 µM,
O=C(O)CCC(=O)N1N=C(c2c(-c3ccccc3)c3cc(Cl)ccc3[nH]c2=O)CC1c1ccco1 (stereo not given),"inconclusive: 79.4 µM [inhibitor, single point]",
CSc1ncc(/C=C2/C(=O)NC(=O)N(c3ccc(C(C)C)cc3)C2=O)cn1,"inconclusive: 50.1 µM [inhibitor, partial curve, poor fit]",
O=C1NC(=O)N(c2ccccc2F)C(=O)/C1=C/c1ccc(Sc2nc3ccccc3[nH]2)o1,"inconclusive: 50.1 µM [inhibitor, partial curve, poor fit]",
CC1CCN(CC(=O)c2ccc3c(c2)OCCO3)CC1,,inactive: -5.23%
Cc1cc(C)cc(N2C(=O)NC(=O)/C(=C\c3cc(C)n(C)c3C)C2=O)c1,,inactive: -11.9%
CCCCn1c(O)c(C(C)=NCc2ccc(F)cc2)c(=O)[nH]c1=O,"inconclusive: 28.2 µM [inhibitor, single point]",
C[C@@]12CC[C@H]3[C@@H](CC[C@@H]4C[C@H]5S[C@H]5C[C@]43C)[C@H]1CC[C@H]2O,"inconclusive: 14.1 µM [inhibitor, partial curve, poor fit]",
Nc1c(C(=O)NC2CCCC2)c2nc3ccccc3nc2n1CC1CCCO1 (stereo not given),"inconclusive: 70.8 µM [inhibitor, partial curve]",
CC[C@@H](CO)NC(=O)[C@H]1C=C2c3cccc4c3c(cn4C)C[C@H]2N(C)C1,active: 31.6 µM,
COc1cccc(NP(=O)(Oc2ccc(Cl)cc2)Oc2ccc(Cl)cc2)c1,"inconclusive: 89.1 µM [inhibitor, single point]",

# A stretch taken from the entries so far:
Compound,Potency,"max response, negative = inhibition"
CCCN1CCc2cccc3c2[C@H]1Cc1ccc(O)c(O)c1-3,active: 7.94 µM,
O=C1NC(=O)C(=Cc2ccc3ccccc3c2)C(=O)N1,"inconclusive: 44.7 µM [inhibitor, partial curve, poor fit]",
CCN(CC)C(=O)c1ccc(NC(=O)COC(=O)c2ccc(Cl)s2)cc1,"inconclusive: 89.1 µM [inhibitor, single point]",
Nc1nc2ccc(Cl)cc2c2nc(-c3ccco3)nn12,"inconclusive: 50.1 µM [inhibitor, partial curve]",
Cc1cccc(N2C(=O)NC(=O)C3(Cc4cc(C)ccc4N(C)C3)C2=O)c1 (stereo not given),,inactive: -8.24%
CN(C)c1ccc(/C=C2/C(=O)NC(=O)N(Cc3ccco3)C2=O)cc1,"inconclusive: 14.1 µM [inhibitor, partial curve, poor fit]",
COc1ccc(/C=C2\C(=O)NC(=O)N(Cc3ccccc3)C2=O)c(OC)c1OC,"inconclusive: 50.1 µM [inhibitor, partial curve]",
COc1cccc(N2C(=O)NC(=O)/C(=C/c3ccc([N+](=O)[O-])s3)C2=O)c1,"inconclusive: 50.1 µM [inhibitor, partial curve, poor fit]",
c1nc[n]([Sn]([CH]2CCCCC2)([CH]2CCCCC2)[CH]2CCCCC2)n1,active: 50.1 µM,
CC1CCN(CC(=O)c2ccccc2Cl)CC1,"inconclusive: 44.7 µM [inhibitor, partial curve, poor fit]",
COc1ccccc1N1CCN(Cc2ccc(Br)s2)CC1,,inactive: -1.92%
O=C(O)CCn1cc(C=C2C(=O)NC(=S)NC2=O)c(-c2cc3ccccc3oc2=O)n1,"inconclusive: 50.1 µM [inhibitor, partial curve, poor fit]",
CCN(CC)c1ccc(/C=C/[N+](=O)[O-])cc1,active: 17.8 µM,
CC1CC(OP(O)(=S)c2ccc(N(C)C)cc2NC(=O)c2cccs2)CC(C)(C)C1 (stereo not given),active: 44.7 µM,
C[C@@H](N)Cc1cnc[nH]1,active: 79.4 µM,
NC(=O)CSc1nc2cc(S(=O)(=O)N3CCOCC3)ccc2o1,"inconclusive: 89.1 µM [inhibitor, single point]",
O=[N+]([O-])c1cccnc1N1CCCNCC1,,inactive: 12.3%
O=C1NC(=S)N(c2ccccc2)C(=O)/C1=C/c1ccco1,"inconclusive: 31.6 µM [inhibitor, partial curve, poor fit]",

# Two compounds picked at random from the list so far:
Compound,Potency,"max response, negative = inhibition"
CC[C@@H](CO)NC(=O)[C@H]1C=C2c3cccc4c3c(cn4C)C[C@H]2N(C)C1,active: 31.6 µM,
CNC(=S)S,"inconclusive: 50.1 µM [inhibitor, partial curve]",
